Results from patent US7927849B2, “Laccase enzyme and use thereof” (AB Enzymes OY, priority 2004, dated 2011).

B1: wt TaLcc1: Wild type laccase purified from Thielavia arenaria ALKO4197 culture supernatant (protein)
chain: MKSWAAAVALMVGILSPHAAAAPPANPVQRDMLQVLEARQSGPTCNTPSNRACWTNGFDINTDYEVSTPNTGRTVAYQLTLTEKENWIGPDGVLKNVVMLVNDKIIGPTIRANWGDNIEVTVINNLKTNGTSMHWHGLRQLGNVFNDGANGVTECPIPPKGGRKTYKFRATQYGTSWYHSHFSAQYGNGVVGTIQIDGPASLPYDIDLGVFPLMDYYYRSADELVHFTQSNGAPPSDNVLFNGTARHPETGAGQWYNVTLTPGKRHRLRIINTSTDNHFQVSLVGHNMTVIATDMVPVNAFTVSSLFLAVGQRYDVTIDANSPVGNYWFNVTFGDGLCGSSNNKFPAAIFRYQGAPATLPTDQGLPVPNHMCLDNLNLTPVVTRSAPVNNFVKRPSNTLGVTLDIGGTPLFVWKVNGSAINVDWGKPILDYVMSGNTSYPVSDNIVQVDAVDQWTYWLIENDPTNPIVSLPHPMHLHGHDFLVLGRSPDELPSAGVRHIFDPAKDLPRLKGNNPVRRDVTMLPAGGWLLLAFKTDNPGAWLFHCHIAWHVSGGLSVDFLERPNDLRTQLNSNAKRADRDDFNRVCREWNAYWPTNPFPKIDSGLRHRFVEESEWMVR
modifications: Thielavia arenaria ALKO4197; (1)..(617) Deduced amino acid sequence of Thielavia arenaria ALKO4197 laccase 1 (Ta Lcc1)
notes: Wild type laccase purified from Thielavia arenaria ALKO4197 culture supernatant
B2: TaLcc1: Recombinant Thielavia arenaria ALKO4197 laccase 1 (SEQ ID NO: 12) produced in Trichoderma reesei strains RF5597/RF5598 (protein)
chain: B1 chain
modifications: Thielavia arenaria ALKO4197; (1)..(617) Deduced amino acid sequence of Thielavia arenaria ALKO4197 laccase 1 (Ta Lcc1)

What was measured:
[1] = Denim bleaching at different temperatures (Launder Ometer); details: denim bleaching application
Method: The test system and denim were as in Example 7, except that the conditions during the laccase and mediator treatment in Launder were 30 min, pH 6 and temperature 30-80° C. Also, the enzyme was inactivated by an alkaline treatment instead of raising the temperature in Launder as follows. After removing swatches from the containers they were soaked in warm water containing NaOH (pH 11.5) for 10 min and rinsed carefully with warm water. The swatches were dried half-dry in a tumbler and after that air dried. The bleaching effect was evaluated by measuring the colour as reflectance values as in Example 7.

pH optimum on guaiacol = type: biochemical; details: McIlvaine buffer, pH range 2.0-8.0

Molecule | temperature optimum in denim bleaching [1] | pH optimum on guaiacol (pH optimum on guaiacol) | pH optimum on guaiacol (pH optimum on guaiacol; listed as Thielavia laccase)
B1 | 60 °C | 6.0 | 5.5
B2 | 60-70 °C | 6.0 | 
